For at least one compound, name, drawing or mass did not settle the structure.
Assays:
[1] = system: psoriasis; conditions: background statement on known topical anthralin use; cited from earlier work
[2] = system: psoriasis; assay: Topical treatment of psoriasis patients by the method: anthralin formulation, then wax formulation, then talc powder; assay type: in vivo, human
[3] = system: psoriasis; assay: Earlier or concurrent treatment of the psoriasis subjects with other drugs (case histories); assay type: in vivo, human; conditions: Example 4; person; three weeks of treatment with cream
[4] = Example 5, person, anthralin 0.2% increased to 1% by weight, once daily

Compound | clearing of chronic plaques in topical treatment of psoriasis [1] | duration of clearing ([2]; Example 4, person, 0.25% by weight anthralin twice daily) | clearing of guttate psoriasis ([2]; Example 4, person, 0.25% by weight anthralin twice daily, after three weeks) | duration of improvement [2, 4] | need for systemic treatment with methotrexate [2, 4] | clearing of psoriatic lesions ([2]; Example 5, person, anthralin 0.2% increased to 1% by weight, once daily, after a few weeks) | onset of clearing of lesions ([2]; Example 6, person, anthralin 0.2% increased to 1% by weight, once daily) | resolution of psoriatic lesions ([2]; Example 9, person, 0.4% anthralin formulation twice daily, after three months) | skin status ([2]; Example 10, 0.25% anthralin twice a day, after four weeks of treatment) | improvement of psoriatic lesions ([2]; typical case, about 0.1% to about 0.2% anthralin, after a few weeks of topical application) | appearance of skin ([2]; typical case, about 0.1% to about 0.2% anthralin, after two months of treatment) | duration of remission without further treatment ([2]; typical case, compared with skin treated with topical corticosteroids) | response of guttate psoriasis [3]
O=C1c2c(O)cccc2Cc2cccc(O)c21 [anthralin, 1,8,9,-anthracenetriol] | substantial clearing of chronic plaques usually occurs within two months | remained so over a nine-month period | entirely free of psoriasis | sustained over more than six months | reduced to an injection every four to six weeks | started to clear completely | began to clear within three months | resolved completely | free of the dermatological disorder | improved substantially | near normal in appearance | stayed clinically free of psoriasis a longer time than skin treated with topical corticosteroids | –
CC1(C)O[C@@H]2C[C@H]3[C@@H]4CCC5=CC(=O)C=C[C@]5(C)[C@@]4(F)[C@@H](O)C[C@]3(C)[C@]2(C(=O)CO)O1 [triamcinolone acetonide] | – | – | – | – | – | – | – | – | – | – | – | – | did not respond

— patent US6403123B1, “Method for topical treatment of anthralin-responsive dermatological disorders” (priority 2000, dated 2002)
